Data reported in paper PMC11589570, “Critical assessment of LC3/GABARAP ligands used for degrader development and ligandability of LC3/GABARAP binding pockets” (Nature Communications, 2024).
“And” between values parts separate entries of the source, which are not always exact repeats. Equal values may be shown once. The source gives many values for each of these; only a part stands here.

System: U2OS cells
Assay: Cell growth assay (IncuCyte confluence over 72 h)
Assay type: cell-based
Set-up: key: % of well area covered by cells (confluence)
Details: listed as KT1
How it was run: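 U2OS cells were grown in DMEM with 10% FBS for 24 h before treatment. Confluence was then tracked by IncuCyte phase imaging over 72 h and expressed as % of well area covered by cells. Each point is the average of three wells.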

Cc1ccc(C)c(S(=O)(=O)Nc2cc(SCC(=O)O)c(O)c3ccccc23)c1 [compound 8]
U2OS cell growth (1 uM, time 72 h): 91.9216 and 92.2442 and 93.6054 | U2OS cell growth (3 uM, time 12 h): 40.267 and 32.3836 and 41.3396 | U2OS cell growth (3 uM, time 14 h): 34.853 and 34.0718 and 37.7724 | U2OS cell growth (3 uM, time 16 h): 31.8641 and 28.4036 and 35.1848 | U2OS cell growth (3 uM, time 18 h): 37.5506 and 37.8606 and 38.5873 | U2OS cell growth (3 uM, time 20 h): 35.6491 and 35.0575 and 40.0985 | U2OS cell growth (3 uM, time 22 h): 37.963 and 32.2641 and 40.2201 | U2OS cell growth (3 uM, time 24 h): 45.7504 and 49.0443 and 56.404 | U2OS cell growth (3 uM, time 26 h): 47.3243 and 43.5312 and 51.7633 | U2OS cell growth (3 uM, time 28 h): 43.5279 and 44.4572 and 46.9739 | U2OS cell growth (3 uM, time 30 h): 46.5448 and 42.2809 and 49.7037 | U2OS cell growth (3 uM, time 32 h): 41.1954 and 40.0455 and 61.2249 | U2OS cell growth (3 uM, time 34 h): 57.7539 and 61.6201 and 62.1621 | U2OS cell growth (3 uM, time 36 h): 50.8759 and 41.5972 and 59.5336 | U2OS cell growth (3 uM, time 38 h): 49.2293 and 46.4623 and 60.8979 | U2OS cell growth (3 uM, time 40 h): 52.5528 and 49.386 and 53.6056 | U2OS cell growth (3 uM, time 42 h): 66.9634 and 77.0253 and 74.5196 | U2OS cell growth (3 uM, time 44 h): 57.6905 and 52.4813 and 68.7199 | U2OS cell growth (3 uM, time 46 h): 65.3637 and 53.2489 and 67.958 | U2OS cell growth (3 uM, time 48 h): 60.5354 and 56.8002 and 72.6777 | U2OS cell growth (3 uM, time 50 h): 73.2165 and 64.8625 and 79.1572 | U2OS cell growth (3 uM, time 52 h): 73.4279 and 72.5178 and 87.2757 | U2OS cell growth (3 uM, time 54 h): 83.6876 and 76.472 and 87.5858 | U2OS cell growth (3 uM, time 56 h): 89.0887 and 87.4003 and 95.878 | U2OS cell growth (3 uM, time 58 h): 85.0275 and 83.3443 and 95.3055 | U2OS cell growth (3 uM, time 60 h): 90.1625 and 92.9328 and 94.7173 | U2OS cell growth (3 uM, time 62 h): 90.2637 and 97.3638 and 98.1064 | U2OS cell growth (3 uM, time 64 h): 94.0986 and 93.1569 and 98.4601 | U2OS cell growth (3 uM, time 66 h): 83.3318 and 83.9594 and 91.7465 | U2OS cell growth (3 uM, time 68 h): 94.8286 and 93.8527 and 98.7589 | U2OS cell growth (3 uM, time 70 h): 90.3246 and 93.1255 and 91.9588 | U2OS cell growth (3 uM, time 72 h): 97.2578 and 99.5454 and 98.0911 | U2OS cell growth (5 uM, time 12 h): 49.625 and 41.7527 and 41.0637 | U2OS cell growth (5 uM, time 14 h): 42.4571 and 42.57 and 41.97 | U2OS cell growth (5 uM, time 16 h): 40.6444 and 46.2923 and 32.3053 | U2OS cell growth (5 uM, time 18 h): 54.2032 and 38.3371 and 47.1798 | U2OS cell growth (5 uM, time 20 h): 41.4178 and 46.6665 and 35.5461 | U2OS cell growth (5 uM, time 22 h): 44.2737 and 46.5681 and 34.0203 | U2OS cell growth (5 uM, time 24 h): 53.7705 and 51.6182 and 40.8114 | U2OS cell growth (5 uM, time 26 h): 47.6218 and 47.8592 and 37.868 | U2OS cell growth (5 uM, time 28 h): 50.627 and 52.9572 and 40.8164 | U2OS cell growth (5 uM, time 30 h): 54.0507 and 47.045 and 40.6333 | U2OS cell growth (5 uM, time 32 h): 50.5745 and 62.5204 and 45.0707 | U2OS cell growth (5 uM, time 34 h): 61.2376 and 60.6974 and 55.7697 | U2OS cell growth (5 uM, time 36 h): 57.0936 and 55.6137 and 49.6811 | U2OS cell growth (5 uM, time 38 h): 63.5475 and 62.6945 and 58.8156 | U2OS cell growth (5 uM, time 40 h): 59.1563 and 74.5387 and 47.3816 | U2OS cell growth (5 uM, time 42 h): 69.6038 and 69.5872 and 59.3097 | U2OS cell growth (5 uM, time 44 h): 65.6561 and 72.3046 and 56.9204 | U2OS cell growth (5 uM, time 46 h): 67.5278 and 65.2168 and 57.2927 | U2OS cell growth (5 uM, time 48 h): 67.6641 and 74.4823 and 69.2803 | U2OS cell growth (5 uM, time 50 h): 75.9912 and 76.6871 and 60.826 | U2OS cell growth (5 uM, time 52 h): 79.9202 and 72.5337 and 66.0805 | U2OS cell growth (5 uM, time 54 h): 80.4849 and 77.9904 and 70.9848 | U2OS cell growth (5 uM, time 56 h): 89.2278 and 91.1795 and 82.1304 | U2OS cell growth (5 uM, time 58 h): 89.1429 and 89.0084 and 78.3629 | U2OS cell growth (5 uM, time 60 h): 92.9919 and 92.0892 and 83.8822 | U2OS cell growth (5 uM, time 62 h): 94.5617 and 97.487 and 88.7359 | U2OS cell growth (5 uM, time 64 h): 93.791 and 91.2897 and 86.756 | U2OS cell growth (5 uM, time 66 h): 91.1466 and 89.2407 and 83.3396 | U2OS cell growth (5 uM, time 68 h): 92.8599 and 90.4424 and 86.3984 | U2OS cell growth (5 uM, time 70 h): 91.6599 and 92.2552 and 79.6157 | U2OS cell growth (5 uM, time 72 h): 97.2472 and 98.8518 and 91.2384 | U2OS cell growth (10 uM, time 12 h): 37.189 and 40.4648 and 52.7027 | U2OS cell growth (10 uM, time 14 h): 34.3839 and 35.6896 and 48.9861 | U2OS cell growth (10 uM, time 16 h): 30.2325 and 30.2461 and 41.4865 | U2OS cell growth (10 uM, time 18 h): 33.1337 and 32.9389 and 52.3703 | U2OS cell growth (10 uM, time 20 h): 30.7018 and 30.0617 and 37.8167 | U2OS cell growth (10 uM, time 22 h): 30.839 and 28.2137 and 49.5138 | U2OS cell growth (10 uM, time 24 h): 30.6121 and 29.1376 and 40.5474 | U2OS cell growth (10 uM, time 26 h): 35.7424 and 30.4722 and 42.0804 | U2OS cell growth (10 uM, time 28 h): 33.4782 and 30.921 and 43.6039 | U2OS cell growth (10 uM, time 30 h): 32.5645 and 30.3286 and 34.5035 | U2OS cell growth (10 uM, time 32 h): 30.2055 and 31.8237 and 33.5677 | U2OS cell growth (10 uM, time 34 h): 37.5837 and 43.6484 and 51.3932 | U2OS cell growth (10 uM, time 36 h): 29.8306 and 34.6824 and 40.9149 | U2OS cell growth (10 uM, time 38 h): 32.1525 and 33.2716 and 41.3603 | U2OS cell growth (10 uM, time 40 h): 30.1408 and 31.5292 and 33.2407 | U2OS cell growth (10 uM, time 42 h): 32.3289 and 35.2672 and 47.5823 | U2OS cell growth (10 uM, time 44 h): 28.9743 and 31.2931 and 43.4691 | U2OS cell growth (10 uM, time 46 h): 29.0841 and 30.5391 and 36.6007 | U2OS cell growth (10 uM, time 48 h): 24.5423 and 29.6196 and 39.5328 | U2OS cell growth (10 uM, time 50 h): 28.0997 and 29.0734 and 41.0634 | U2OS cell growth (10 uM, time 52 h): 28.7511 and 30.391 and 37.1951 | U2OS cell growth (10 uM, time 54 h): 27.2658 and 29.7979 and 37.5684 | U2OS cell growth (10 uM, time 56 h): 36.6921 and 35.9497 and 60.0919 | U2OS cell growth (10 uM, time 58 h): 32.8096 and 31.3596 and 43.7845 | U2OS cell growth (10 uM, time 60 h): 33.0375 and 33.3179 and 45.0177 | U2OS cell growth (10 uM, time 62 h): 29.8759 and 33.854 and 41.4437 | U2OS cell growth (10 uM, time 64 h): 32.0035 and 31.8796 and 42.046 | U2OS cell growth (10 uM, time 66 h): 26.7489 and 31.2423 and 38.6894 | U2OS cell growth (10 uM, time 68 h): 27.2964 and 32.6835 and 34.0769 | U2OS cell growth (10 uM, time 70 h): 28.8298 and 27.5404 and 33.5399 | U2OS cell growth (10 uM, time 72 h): 32.2094 and 34.017 and 40.5956
